Data: patent US11628179B2, “Compounds for treating and preventing extracellular histone mediated pathologies” (priority 2017, dated 2023)
Where a name gives a salt, the structure may show the parent alone. For at least one compound, name, drawing or mass did not settle the structure.

Assays:
Assay type in all cases: in vitro ADME
dog plasma proteins = test: Plasma protein binding by ultrafiltration, dog plasma; conditions: 200 and 2000 ng/mL, stated for all three species
Procedure: (§1) Protein binding was assessed by an ultrafiltration method using Centrifree® Ultrafiltration Devices with a 30000 dalton molecular weight cut-off point. Briefly, known concentrations of mCBS (as free base) were added to human, rat and dog plasma samples and incubated for 20 min at 37° C. The samples were then subject to ultrafiltration to separate protein bound and unbound drug.
(§2) mCBS stock solutions (10 μL) were spiked into solutions of each test matrix (490 μL) as listed below in Table 9 to have a final concentration of 200 ng/mL & 2000 ng/m L.
(§3) Spiked samples were then incubated at 37° C. for 20 minutes in a water bath. Aliquots of the samples from each test group (500 μL) were transferred to the ultrafiltration devices (n=3) and centrifuged for 20 minutes at 1000 g. After centrifugation, aliquots of the ultrafiltrates (50 μL) were transferred to separate test tubes for extraction, alongside duplicate aliquots of the samples prior to ultrafiltration from each test group.
(§4) For quantification of samples before ultrafiltration, samples were analysed against a freshly prepared standard curve in plasma.

rat plasma proteins = test: Plasma protein binding by ultrafiltration, rat plasma; conditions: 200 and 2000 ng/mL, stated for all three species
Procedure: as §1, §2, §3, §4

human plasma proteins = test: Plasma protein binding by ultrafiltration, human plasma; conditions: 200 and 2000 ng/mL, stated for all three species
Procedure: as §1, §2, §3, §4

[1] = Non-specific binding to ultrafiltration device (phosphate buffer); conditions: Phosphate Buffer pH 7.4; replicates and Mean
Procedure: as §1, §2, §3, §4

SMILES: CO[C@@H]1O[C@H](COS(=O)(=O)O)[C@@H](O[C@@H]2O[C@H](COS(=O)(=O)O)[C@@H](OS(=O)(=O)O)[C@H](OS(=O)(=O)O)[C@H]2OS(=O)(=O)O)[C@H](OS(=O)(=O)O)[C@H]1OS(=O)(=O)O [mCBS, β-O-methyl cellobioside sulfate]
- plasma protein binding (dog plasma proteins): about 20%
- plasma protein binding (rat plasma proteins): about 20%
- plasma protein binding (human plasma proteins): about 20%
- Concentration of mCBS, 2000 ng/mL Post-filter [1]: 1860 ng/mL
- Concentration of mCBS, 2000 ng/mL Pre-filter [1]: 2090 ng/mL
